Experimental findings from article PMC5544689 are described below.

By UniProt entry, the sequences of proteins in these tests, tags left out.
UniProt Q9UKV8: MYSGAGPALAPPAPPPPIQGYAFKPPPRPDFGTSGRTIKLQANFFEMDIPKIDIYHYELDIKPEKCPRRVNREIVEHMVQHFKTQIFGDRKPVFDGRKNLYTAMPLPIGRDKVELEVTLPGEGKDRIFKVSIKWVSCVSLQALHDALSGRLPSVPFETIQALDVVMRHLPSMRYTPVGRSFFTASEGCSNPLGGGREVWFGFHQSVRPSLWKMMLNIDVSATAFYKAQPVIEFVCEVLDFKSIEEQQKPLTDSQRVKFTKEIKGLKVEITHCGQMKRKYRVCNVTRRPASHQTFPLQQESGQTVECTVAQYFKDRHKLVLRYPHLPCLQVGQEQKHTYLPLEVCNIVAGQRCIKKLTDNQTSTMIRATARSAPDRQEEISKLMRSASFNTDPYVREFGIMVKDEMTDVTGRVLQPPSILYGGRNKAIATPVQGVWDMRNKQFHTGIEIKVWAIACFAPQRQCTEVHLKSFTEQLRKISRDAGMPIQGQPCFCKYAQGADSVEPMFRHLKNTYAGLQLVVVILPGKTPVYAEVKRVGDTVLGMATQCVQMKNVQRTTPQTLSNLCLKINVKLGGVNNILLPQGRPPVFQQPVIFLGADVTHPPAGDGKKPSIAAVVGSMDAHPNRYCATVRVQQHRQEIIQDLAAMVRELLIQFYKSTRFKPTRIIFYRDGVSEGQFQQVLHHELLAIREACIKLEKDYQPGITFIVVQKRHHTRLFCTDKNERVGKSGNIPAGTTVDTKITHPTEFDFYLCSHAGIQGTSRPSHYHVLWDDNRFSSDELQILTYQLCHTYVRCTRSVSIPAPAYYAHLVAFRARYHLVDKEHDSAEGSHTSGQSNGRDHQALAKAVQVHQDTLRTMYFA
UniProt Q96GM5: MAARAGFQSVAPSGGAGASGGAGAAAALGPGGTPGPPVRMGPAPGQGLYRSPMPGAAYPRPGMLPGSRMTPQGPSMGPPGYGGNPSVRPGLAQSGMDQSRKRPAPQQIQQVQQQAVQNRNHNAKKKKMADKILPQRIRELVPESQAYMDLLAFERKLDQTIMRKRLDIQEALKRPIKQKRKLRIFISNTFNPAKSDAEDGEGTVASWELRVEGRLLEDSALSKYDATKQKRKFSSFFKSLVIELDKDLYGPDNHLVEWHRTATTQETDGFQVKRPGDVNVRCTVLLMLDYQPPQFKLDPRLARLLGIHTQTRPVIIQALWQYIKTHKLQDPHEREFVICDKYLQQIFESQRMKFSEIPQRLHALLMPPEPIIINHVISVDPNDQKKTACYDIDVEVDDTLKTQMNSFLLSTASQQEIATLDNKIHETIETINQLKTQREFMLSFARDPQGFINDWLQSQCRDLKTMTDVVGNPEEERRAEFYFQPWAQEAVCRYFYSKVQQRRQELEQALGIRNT
UniProt Q969G3: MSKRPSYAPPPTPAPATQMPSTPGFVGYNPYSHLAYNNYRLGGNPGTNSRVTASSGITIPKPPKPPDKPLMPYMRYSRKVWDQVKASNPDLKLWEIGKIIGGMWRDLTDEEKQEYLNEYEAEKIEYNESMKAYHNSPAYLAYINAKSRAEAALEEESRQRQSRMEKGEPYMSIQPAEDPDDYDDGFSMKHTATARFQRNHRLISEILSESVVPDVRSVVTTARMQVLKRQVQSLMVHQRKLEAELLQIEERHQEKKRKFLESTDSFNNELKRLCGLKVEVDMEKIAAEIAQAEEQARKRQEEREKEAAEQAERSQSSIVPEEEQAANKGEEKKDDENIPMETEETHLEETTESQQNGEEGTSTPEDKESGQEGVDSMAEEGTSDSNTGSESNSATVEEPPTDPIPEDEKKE
UniProt Q9UPQ9: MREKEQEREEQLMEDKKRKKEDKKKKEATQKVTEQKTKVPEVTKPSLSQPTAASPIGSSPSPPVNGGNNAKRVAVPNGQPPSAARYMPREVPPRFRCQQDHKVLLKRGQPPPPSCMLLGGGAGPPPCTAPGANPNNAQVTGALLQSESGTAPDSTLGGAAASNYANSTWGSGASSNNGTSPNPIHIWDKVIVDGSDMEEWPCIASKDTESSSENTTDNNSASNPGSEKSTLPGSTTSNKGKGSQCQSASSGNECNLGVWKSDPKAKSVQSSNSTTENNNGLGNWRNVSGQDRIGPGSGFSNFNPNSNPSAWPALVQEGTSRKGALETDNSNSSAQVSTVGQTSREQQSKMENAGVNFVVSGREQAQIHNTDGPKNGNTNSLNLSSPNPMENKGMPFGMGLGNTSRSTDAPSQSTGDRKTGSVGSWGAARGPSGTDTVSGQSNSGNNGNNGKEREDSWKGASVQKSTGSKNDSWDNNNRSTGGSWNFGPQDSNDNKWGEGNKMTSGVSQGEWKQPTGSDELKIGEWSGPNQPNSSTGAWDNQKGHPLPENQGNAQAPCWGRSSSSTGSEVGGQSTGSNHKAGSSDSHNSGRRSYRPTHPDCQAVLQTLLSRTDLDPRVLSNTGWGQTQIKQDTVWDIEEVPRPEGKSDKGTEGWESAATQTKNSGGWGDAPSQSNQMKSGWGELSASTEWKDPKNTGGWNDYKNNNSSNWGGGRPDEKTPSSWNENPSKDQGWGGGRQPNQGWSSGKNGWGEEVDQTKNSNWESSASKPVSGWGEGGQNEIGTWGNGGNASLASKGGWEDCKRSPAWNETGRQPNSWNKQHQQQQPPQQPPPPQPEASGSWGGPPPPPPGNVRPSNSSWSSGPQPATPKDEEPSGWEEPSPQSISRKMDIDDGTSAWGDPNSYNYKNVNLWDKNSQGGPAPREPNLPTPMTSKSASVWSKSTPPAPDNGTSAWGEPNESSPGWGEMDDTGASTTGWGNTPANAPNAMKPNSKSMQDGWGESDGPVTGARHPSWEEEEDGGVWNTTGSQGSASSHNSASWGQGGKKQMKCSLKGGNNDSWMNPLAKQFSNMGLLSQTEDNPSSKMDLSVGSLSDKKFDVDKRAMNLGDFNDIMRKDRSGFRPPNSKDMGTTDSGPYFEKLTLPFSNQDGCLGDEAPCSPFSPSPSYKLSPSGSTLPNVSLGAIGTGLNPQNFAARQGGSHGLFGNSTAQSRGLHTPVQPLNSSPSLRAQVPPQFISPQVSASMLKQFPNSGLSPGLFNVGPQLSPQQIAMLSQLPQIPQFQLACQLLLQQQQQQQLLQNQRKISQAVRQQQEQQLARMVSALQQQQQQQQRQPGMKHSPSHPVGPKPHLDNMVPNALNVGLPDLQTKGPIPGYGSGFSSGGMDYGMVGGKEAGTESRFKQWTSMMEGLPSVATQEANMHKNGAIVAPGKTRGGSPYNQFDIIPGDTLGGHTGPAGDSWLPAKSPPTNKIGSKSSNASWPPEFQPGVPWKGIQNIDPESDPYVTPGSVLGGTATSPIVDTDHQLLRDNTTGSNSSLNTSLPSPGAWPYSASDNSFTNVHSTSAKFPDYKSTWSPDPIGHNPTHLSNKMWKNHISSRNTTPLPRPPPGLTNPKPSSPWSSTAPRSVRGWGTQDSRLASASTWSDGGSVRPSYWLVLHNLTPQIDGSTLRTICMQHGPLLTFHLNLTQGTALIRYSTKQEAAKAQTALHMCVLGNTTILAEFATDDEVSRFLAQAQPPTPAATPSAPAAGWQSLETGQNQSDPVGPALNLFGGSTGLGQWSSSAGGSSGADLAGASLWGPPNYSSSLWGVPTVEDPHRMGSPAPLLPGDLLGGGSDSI
UniProt Q9HCJ0: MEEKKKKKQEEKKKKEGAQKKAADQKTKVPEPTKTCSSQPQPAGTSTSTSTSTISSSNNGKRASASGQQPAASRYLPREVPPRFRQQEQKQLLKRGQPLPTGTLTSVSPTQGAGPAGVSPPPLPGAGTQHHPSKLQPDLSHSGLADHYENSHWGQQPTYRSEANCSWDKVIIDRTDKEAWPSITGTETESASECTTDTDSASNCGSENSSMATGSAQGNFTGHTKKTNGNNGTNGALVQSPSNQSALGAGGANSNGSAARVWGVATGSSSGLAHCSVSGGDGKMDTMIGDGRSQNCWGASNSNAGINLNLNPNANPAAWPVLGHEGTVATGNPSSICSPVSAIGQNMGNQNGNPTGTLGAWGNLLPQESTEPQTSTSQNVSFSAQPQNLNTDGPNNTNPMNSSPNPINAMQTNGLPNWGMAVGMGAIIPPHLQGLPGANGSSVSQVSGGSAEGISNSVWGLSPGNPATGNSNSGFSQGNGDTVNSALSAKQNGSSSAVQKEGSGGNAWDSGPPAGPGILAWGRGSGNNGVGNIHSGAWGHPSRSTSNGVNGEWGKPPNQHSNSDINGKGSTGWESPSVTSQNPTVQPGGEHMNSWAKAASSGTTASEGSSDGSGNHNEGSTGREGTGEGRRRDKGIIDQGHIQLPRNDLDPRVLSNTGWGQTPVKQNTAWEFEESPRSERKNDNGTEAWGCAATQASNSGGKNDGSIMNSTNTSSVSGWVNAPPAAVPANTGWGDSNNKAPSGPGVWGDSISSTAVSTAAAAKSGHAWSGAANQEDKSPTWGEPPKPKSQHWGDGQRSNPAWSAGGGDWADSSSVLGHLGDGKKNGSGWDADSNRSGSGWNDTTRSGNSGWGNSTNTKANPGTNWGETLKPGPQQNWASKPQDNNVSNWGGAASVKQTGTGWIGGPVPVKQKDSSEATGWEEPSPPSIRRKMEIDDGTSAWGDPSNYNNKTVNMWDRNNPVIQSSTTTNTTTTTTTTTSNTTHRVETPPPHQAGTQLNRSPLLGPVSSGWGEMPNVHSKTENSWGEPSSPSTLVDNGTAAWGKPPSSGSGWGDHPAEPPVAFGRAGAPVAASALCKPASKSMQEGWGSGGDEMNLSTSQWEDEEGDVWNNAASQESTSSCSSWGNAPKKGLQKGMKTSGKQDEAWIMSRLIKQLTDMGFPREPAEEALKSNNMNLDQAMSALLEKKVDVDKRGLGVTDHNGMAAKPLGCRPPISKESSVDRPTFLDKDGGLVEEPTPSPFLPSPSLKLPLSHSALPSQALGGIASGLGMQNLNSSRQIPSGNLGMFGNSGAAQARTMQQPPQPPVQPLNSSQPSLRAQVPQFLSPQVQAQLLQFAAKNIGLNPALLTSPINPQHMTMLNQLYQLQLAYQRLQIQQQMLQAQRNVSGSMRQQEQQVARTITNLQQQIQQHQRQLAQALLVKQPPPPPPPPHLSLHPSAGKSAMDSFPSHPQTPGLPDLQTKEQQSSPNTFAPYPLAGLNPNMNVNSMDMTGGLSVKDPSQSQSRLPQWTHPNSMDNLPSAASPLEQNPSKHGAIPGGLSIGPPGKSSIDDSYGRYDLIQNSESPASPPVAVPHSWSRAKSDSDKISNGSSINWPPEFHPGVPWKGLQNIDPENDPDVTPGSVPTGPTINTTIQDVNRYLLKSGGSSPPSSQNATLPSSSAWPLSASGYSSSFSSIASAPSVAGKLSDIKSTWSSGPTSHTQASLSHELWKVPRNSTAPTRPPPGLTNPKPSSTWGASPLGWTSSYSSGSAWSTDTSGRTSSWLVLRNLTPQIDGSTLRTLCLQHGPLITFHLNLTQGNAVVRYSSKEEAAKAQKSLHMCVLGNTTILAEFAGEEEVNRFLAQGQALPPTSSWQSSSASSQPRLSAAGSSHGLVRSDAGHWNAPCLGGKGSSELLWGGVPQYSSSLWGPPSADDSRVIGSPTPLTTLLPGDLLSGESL

Assay [1] concerns the target Argonaute 2 (AGO2) (human (endogenous in HEK293T and primary human epidermal stem cells)) (UniProt Q9UKV8). Put plainly: affinity purification with mass spectrometry; ChIP-MS: formaldehyde cross-linked, sonicated chromatin of primary human epidermal stem cells; IP with anti-AGO2 11A9, protein G beads, washed 5X in RIPA buffer; SILAC (anti-FLAG control) and dimethyl labelling (IgG isotype control).

Assay [2] shares this target. Nature of the assay: affinity purification with mass spectrometry; label-free quantitative IP-MS with anti-AGO2 11A9 against rat IgG, wild-type and AGO2-/- HEK293T lysates, RIPA buffer, triplicate; stoichiometry from iBAQ values scaled to the bait AGO2 = 1.

These are yes or no findings as the source states them, for the method shown. In cells and extracts the contact can be indirect. A yes stands for co-enrichment or nearness to the bait. Other partners may have been found. For some assays here: No binding means not detected with the bait.

SMARCD1 (from UniProt Q96GM5 1-515): the binding result in assay [1] is “no binding”.

Regarding SMARCE1 (from UniProt Q969G3 1-411), the binding entry in assay [1] is reported as “no binding”.

Take TNRC6A (from UniProt Q8NDV7 1-1962): the binding result in assay [2] is “binds”.

In the case of TNRC6B (from UniProt Q9UPQ9 1-1833), the binding entry in assay [2] is recorded as “binds”.

As for TNRC6C (from UniProt Q9HCJ0 1-1936), the binding entry in assay [2] is “binds”.
